In publication PMC10163288:
Some of the results follow.

B1: il10ra_site1_sap_29_mot_HHH_b1_05127_000000115_0001_41_56_H_._HHH_b1_05393_0001_0000300018_0000001_0_0001_af2pred_0001 (protein)
chain: SSSSSEERERVEELFEEAERLLEEGDYEEVARLIIEMAELARKGDDPEAIRLVLEIVRKLFSSSS
B2: il10ra_site1_sap_23_mot_HHH_b1_07286_af2_000000054_0001_1_19_H_._HHH_b2_06366_0001_0000200011_0000001_0_0001 (protein)
chain: SSSSDEAYRLVEEAIEEALKLWRNGNPEEAQELIERVIKELEELGNWAAVWAARHVLRVLRSSSS
B3: il10ra_site1_normal_mot_HHH_b1_06914_000000280_0001_1_18_H_._HHH_b2_01688_0001_0000100008_0000002_0 (protein)
chain: SSSSDELAREVYELSREAAELFAQGNEEEAREVLEEAERLAEENNNEFLLLQVRFLLRQIGSSSS
B4: il10ra_site1_sap_21_mot_HHH_b2_04679_000000194_0001_21_38_H_._HHH_b2_07003_af2_0001_0000300020_0000001_0_0001 (protein)
chain: SSSSDVEEEIRELIERAERLAEEGDPEKANELLLRALQLAYRINDPELLREIWEVFEELNSSSSS
B5: il10ra_site1_normal_mot_6bb093d23f5042b6c551c363657da53b_0001_1_000000153_0001_51_65_H_._HHH_b2_05733_af2_0001_0001000045_0000001_0_af2pred_0001 (protein)
chain: SSSSSEEEKRLKELIEELERLLEEGDEEKVLKVLLELSHLAIKLSDPEAIKLALRVAEELSSSSS
B6: il10ra_site1_normal_mot_HHH_b2_08050_000000089_0001_21_37_H_._HHH_b2_00643_0001_0000100003_0000001_0 (protein)
chain: SSSSSKSEQVRRFVRQLIEFSEETGDHRALEAAKSILRLAIESTGDPELEKLLEELEELLSSSSS
B7: il10ra_site1_normal_mot_22aa8d8ad8dce7f663ea8fa348a52261_0001_000000025_0001_37_51_H_._d8cfa582855fb05d91e09f57594ab115_0001_1_0001_0000700016_0000001_0 (protein)
chain: DEELEEALELLERLLPPELLRLLELTIKQLREQGAPPETILQALILLLRARGDPEAAELVEKLLK
B8: il10ra_site1_normal_mot_HHH_b1_03065_af2_000000286_0001_1_17_H_._HHH_b1_04164_af2_0001_0000300023_0000002_0 (protein)
chain: SSSSTDEIYEEVKELLEELNELLREGDEERAEELLKRAKELAEELNNLALRFAIEHLERLLSSSS
B9: il10ra_site1_normal_mot_HHH_b1_02997_000000220_0001_39_52_H_._HHH_b1_05536_0001_0000300041_0000001_1_af2pred_dldesign_0_af2pred (protein)
chain: SSSSSNKLNQEAVELLKKASELDDPEEQRRLLEKALELAKKAKSENLIAVTEYRLAQLEESSSSS
B10: il10ra_site1_normal_mot_HHH_b1_06914_000000280_0001_1_18_H_._HHH_b2_05268_0001_0000100015_0000002_0 (protein)
chain: SSSSNEEAHELYRLSREALELLAEGDPEEAREVVEEAEEIAERAGNRALLFVIEYLLRQINSSSS
B11: il10ra_site1_normal_mot_HHH_b1_05672_af2_000000246_0001_1_19_H_._HHH_b2_02879_af2_0001_0000500024_0000001_0_af2pred_dldesign_0_af2pred (protein)
chain: SSSSDPQTRVAELLREVVRLLDEGKPEEAREVLAEAERLAEELGDAELQKAVELVRAYVESSSSS
B12: il10ra_site1_normal_mot_HHH_b2_06979_000000158_0001_42_57_H_._HHH_b1_03932_af2_0001_0000400024_0000001_0_af2pred_dldesign_0_af2pred (protein)
chain: SSSSSSKDLTEEAVALLREALELDDKEKRKELLDKALELAKKAGSKILVDAIEYLRKQLESSSSS
B13: il10ra_site1_sap_17_mot_HHH_b2_07145_000000158_0001_24_40_H_._069d1585ae11fb35a31570eb630733e4_0001_af2_0001_0000300005_0000001_0_0001 (protein)
chain: SSSSDEEVRELIEEAEELAERGDPERAIEVLQRALRLAFQEGDEELLQLIWELARKIGELVSSSS
B14: il10ra_site1_normal_mot_HHH_b2_02116_af2_000000165_0001_41_55_H_._HHH_b2_08065_af2_0001_0000200009_0000001_0_af2pred_0001 (protein)
chain: SSSSSDDERAVELLLRAAELAAEEGDPRLAEAALRLAEQIAKHGNNPELEEEVERVLRELSSSSS
B15: il10ra_site1_sap_20_mot_HHH_b1_05056_000000217_0001_1_20_H_._HHH_b1_04549_0001_0000200019_0000001_1_0001 (protein)
chain: SSSSSLEEQVRAAERFLRWLYEAGDPEAARRIAEAILEAVKKDGNEELFERLEEILEEINSSSSS
B16: il10ra_site1_sap_24_mot_HHH_b1_03094_000000294_0001_1_20_H_._HHH_b2_02427_0001_0000400035_0000001_0_0001_af2pred_0001 (protein)
chain: SEEEEVERMLRFLALAAGVKSVEVTTENGEVTVTVENVSPEARELIEAAVRFLRDRGLNVSFETR
B17: il10ra_site1_normal_mot_HHH_b2_00277_af2_000000172_0001_1_17_H_._HHH_eva_0065_0002_0000400034_0000001_0 (protein)
chain: DPEKEKLEEEIREVLERFEKGKIDPEEAKELLSRLAFKAARLGDDEAVELAIRAYAAIHQAEQRS
B18: il10ra_site1_sap_24_mot_HHH_b2_02497_000000220_0001_1_20_H_._HHH_b2_07522_0001_0000300052_0000001_0_0001 (protein)
chain: SSSSDEEEREVERLIEEAEELVEKGDHREAIRVIQRAVRIALRANNPELLQRLWELVQELASSSS
B19: il10ra_site1_normal_mot_HHH_b1_07097_af2_000000269_0001_1_16_H_._HHH_b2_00103_af2_0001_0000100006_0000001_0 (protein)
chain: SSSSSEESERAIELIRKAAKLHHEGNPEEAQELLEEALKIAEEGGNDIIVFTLEWLLERLSSSSS
B20: il10ra_site1_sap_22_mot_HHH_b1_06701_000000046_0001_23_39_H_._ems_3hC_1315_0002_0001_0000300020_0000001_0_0001 (protein)
chain: SSSSSDVEERAREIFEELEEALERRDADELYKLLRELIELAHEFNSEEVEELVHRIVKRFSSSSS
B21: il10ra_site1_sap_20_mot_HHH_b2_02386_000000054_0001_1_20_H_._HHH_b1_00963_af2_0001_0000100006_0000001_0_0001 (protein)
chain: SSSSDMKEYAELALRFVRWLQEAGSEENLRLMLRAAAQVAERANDEEVLRELEEILEELESSSSS
B22: il10ra_site1_normal_mot_HHH_b2_04275_000000272_0001_20_36_H_._HHH_b1_02692_0001_0000200018_0000002_1_af2pred_0001 (protein)
chain: SSSSDLVHEIFELLRRIAELQNDGNEEEARELIERARELIEEAGNLVFKAALEYLEKLLESSSSS
B23: il10ra_site1_normal_mot_HHH_b2_06979_000000158_0001_42_57_H_._HHH_b2_03102_0001_0000100005_0000002_0_af2pred_0001 (protein)
chain: SSSSSEEQERLYRLSREAAELLFEGNKEEAQELLEEAEELAKELGNELALVILEFLLKQLGSSSS
B24: il10ra_site1_sap_23_mot_HHH_b2_06795_000000133_0001_42_56_H_._HHH_b1_03610_0001_0000100008_0000002_0_0001 (protein)
chain: SSSSTETVQEVMRLLRRALELARNGNPEEAQELLEEAEELARENNNILLEFNIEHVLRDLSSSSS
B25: il10ra_site1_sap_19_mot_HHH_b1_04015_af2_000000074_0001_1_17_H_._HHH_b2_05711_0001_0000100005_0000001_0_0001_af2pred_0001 (protein)
chain: SSSSNEEQRVSELLFRVIELYANGNPEEAEEVLKEAERLAKELGDEELERAVEIAKRFVEASSSS
B26: il10ra_site1_normal_mot_65b8060e20531850bca9f2e11f97d954_0001_af2_000000137_0001_17_31_H_._HHH_b2_06425_af2_0001_0000900035_0000001_0_af2pred_0001 (protein)
chain: SSSSDERDKETLRHAIRAVEFLLRQGNEELAKLAARFIKADIEDLGDEELREELERVEEEGSSSS
B27: il10ra_site1_sap_18_mot_HHH_b2_04327_000000030_0001_41_55_H_._HHH_b2_03484_af2_0001_0000400008_0000001_0_0001_af2pred_0001 (protein)
chain: SSSSSSSEEEELMQLAAEISRHASPEEIRRLFELLVRLYHEGDPELKEELRELIEEIKSSSSSSS
B28: il10ra_site1_sap_22_mot_2ff9a36852ec7b54996b5ca24e2ac07d_0001_000000066_0001_1_13_H_._7770fb65905d5f0854f63973399109c0_0001_0001_0000200009_0000001_0_0001 (protein)
chain: SSSSSQERYEELKRLIEEILRLAWEGNPEEAQEVAEEAEELLRRLGDEYAVRIIESLRRMASSSS
B29: il10ra_site1_normal_mot_HHH_b1_03168_000000120_0001_38_55_H_._4c81b332851cb4c2cca13356e2a6c842_0001_0001_0000200014_0000001_0_af2pred_0001 (protein)
chain: SAFLLAAVVLALLRNGNPELARKFEEELEELAKTDPEAREALELLEQVKEEGDPELAAKIVELAA
B30: il10ra_site1_sap_18_mot_HHH_b2_00597_000000260_0001_41_55_H_._HHH_b1_07547_0001_0000500027_0000001_0_0001_af2pred_0001 (protein)
chain: SSSSSSESEELYRLSREAAELLAEGNPEEAREVLEEARELAEEAGDENTLWVIEFLLKLASSSSS
B31: il10ra_site1_normal_mot_HHH_b2_00800_af2_000000047_0001_1_20_H_._HHH_b1_04999_0001_0000200017_0000001_0 (protein)
chain: SSSSQEIYEFAREAIELVIELLREGNPEEAEKVVEELEELAKERNNHAVEATARILKRAINSSSS
B32: il10ra_site1_sap_28_mot_HHH_b2_03076_000000205_0001_1_19_H_._HHH_b1_03492_af2_0001_0000200019_0000001_0_0001 (protein)
chain: SSSSSDEEYEEEVEELLEEAKRIPDPEEAARVLAEAVHAAAELGNPELLRLVWRVVHEISSSSSS
B33: il10ra_site1_sap_23_mot_HHH_b1_03260_000000175_0001_42_57_H_._HHH_b1_06107_0001_0000700025_0000001_0_0001_af2pred_0001 (protein)
chain: SSSSSDEEEERVEELLEEAKHIPNAEERFRVLKEALELAAELNNPELLRLVRKVAREILTSSSSS
B34: il10ra_site1_normal_mot_HHH_b1_05357_000000034_0001_23_39_H_._HHH_b2_08253_0001_0000500003_0000001_0_af2pred_0001 (protein)
chain: SSSSSSSEEEVEELLEEAKRVDDPRERAYLLTRAYALANRLNDPELRREVEEVAIKLVSSSSSSS
B35: il10ra_site1_sap_8_mot_HHH_b1_01307_000000115_0001_1_18_H_._HHH_b2_08385_0001_0000300007_0000001_0_0001 (protein)
chain: SSSSSDREEVLRLSLQAFRLLLRGNPEEARKVLEEAEELAEELGDERMLKVIEDLLRILNSSSSS
B36: il10ra_site1_normal_mot_HHH_b1_07641_af2_000000285_0001_1_21_H_._HHH_b2_02373_0001_0000100004_0000002_0 (protein)
chain: SSSSDTEEAMRLAEEASEALQKGDTEEARELLEQAREIAEEKGNEVLLWSIEYLLRQVEEESSSS
B37: il10ra_site1_normal_mot_HHH_b1_02997_000000220_0001_39_52_H_._HHH_b1_01256_0001_0000100003_0000001_0_af2pred_0001 (protein)
chain: SSSSSDHEVVREIQELLREALKIEDPEEAREVVERAIELAEEANNPLLELIAKYLLKDLNSSSSS

biological target: il10ra, Q13651; assay: yeast display titration

Apparent Kd, inactive:
B1 no binding seen, B2 no binding seen, B3 no binding seen, B4 no binding seen, B5 no binding seen, B6 no binding seen, B7 no binding seen, B8 no binding seen, B9 no binding seen, B10 no binding seen, B11 no binding seen, B12 no binding seen, B13 no binding seen, B14 no binding seen, B15 no binding seen, B16 no binding seen, B17 no binding seen, B18 no binding seen, B19 no binding seen, B20 no binding seen, B21 no binding seen, B22 no binding seen, B23 no binding seen, B24 no binding seen, B25 no binding seen, B26 no binding seen, B27 no binding seen, B28 no binding seen, B29 no binding seen, B30 no binding seen, B31 no binding seen, B32 no binding seen, B33 no binding seen, B34 no binding seen, B35 no binding seen, B36 no binding seen, B37 no binding seen
